Measurements published in US20220362340A1, “COMPOSITIONS AND USES THEREOF FOR TREATING IRRADIATION-INDUCED INTESTINAL DAMAGE” (UNIVERSITY OF PITTSBURGH-OF THE COMMONWEALTH SYSTEM OF …, priority 2019, published 2022).

Test system: intestinal microbiome
Assay: Fecal microbiome analysis after TBI
Assay type: in vivo, mouse
Conditions: fecal samples 14 days after LD80/30 TBI; FIG. 16A

B1: G-CSF: Granulocyte colony-stimulating factor polypeptide, irradiation mitigator (protein, listed as Homo sapiens)
chain: MAGPATQSPMKLMALQLLLWHSALWTVQEATPLGPASSLPQSFLLKCLEQVRKIQGDGAALQEKLVSECATYKLCHPEELVLLGHSLGIPWAPLSSCPSQALQLAGCLSQLHSGLFLYQGLLQALEGISPELGPTLDTLQLDVADFATTIWQQMEELGMAPALQPTQGAMPAFASAFQRRAGGVLVASHLQSFLEVSYRVLRHLAQP
With B1 as the molecule, how does the “additional taxa differences in survivors versus rad-control” value read?
Its value is “decreased Akkermansia”.
